PubChem BioAssay AID504764 | Drosophila RNAi Screening Center | 2011
The screen tested about 22,000 reagents; this is an unselected part of those with a known target gene and a result. In the full data, 403 (1.9%) are marked active. 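Unnormalised raw counts per well; ratio z-scores behind the hit calls and whether each hit raises or lowers signal are not deposited.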 Not given: the amount of reagent.

Aim: 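Genes whose knock-down alters Notch-dependent transcription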 (primary screen)
Cells: Drosophila Kc167 cells
Reagents: long dsRNA against Drosophila genes
Time to read-out: about 5 days (4 days dsRNA, then 24 h after transfection)
Treatment: transfection of constitutively active membrane-tethered Notch lacking the extracellular domain, read 24 h later
Measured: 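Light from a Notch-responsive E(spl)m3 luciferase reporter under active Notch, with control-promoter and no-Notch reporter wells to normalise; raw counts from paired wells a and b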
Scale: induced reporter light, run 1, well a and induced reporter light, run 1, well b: higher = more light from the Notch target reporter with active Notch; control promoter light, run 1, well a and control promoter light, run 1, well b: higher = more light from the viral control promoter (cell number, transfection, viability); uninduced reporter light, run 1, well a: higher = more light from the Notch target reporter without active Notch
Rule for the call: 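Wells with low control signal or poorly matching duplicates excluded; duplicates averaged; per source plate, z beyond ±2 for induced/control log2 ratio or beyond ±1.8 for induced/uninduced marks a hit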
Calls: active = modifier hit (raised or lowered Notch signal); inactive = not a hit

no.	target gene	PubChem SID	induced reporter light, run 1, well a	induced reporter light, run 1, well b	control promoter light, run 1, well a	control promoter light, run 1, well b	uninduced reporter light, run 1, well a	Outcome
1	CG10646	SID104189556	1.63e5	1.33e5	2.27e5	1.54e5	11135	inactive
2	CG1812	SID104200349	2.02e5	1.50e5	1.28e5	1.10e5	10525	inactive
3	alpha-Est10	SID104192405	70090	79600	84365	61115	6665	inactive
4	CG3632	SID104198929	1.10e5	1.17e5	1.15e5	1.20e5	9110	inactive
5	CG3632	SID104199663	1.90e5	1.80e5	2.40e5	2.56e5	15680	inactive
6	CG7326	SID104199829	75040	74565	98405	1.05e5	9160	inactive
7	CG17826	SID104190081	1.36e5	1.39e5	1.85e5	1.50e5	6410	inactive
8	Sbf	SID104196644	1.03e5	1.17e5	68065	75625	7665	inactive
9	CG3345	SID104180388	1.66e5	1.73e5	2.03e5	2.06e5	15782	inactive
10	Cog4	SID104182849	1.79e5	1.81e5	1.53e5	1.48e5	11790	inactive
11	Adk2	SID104189619	1.54e5	1.62e5	1.09e5	80925	14365	inactive
12	Cyp4e1	SID104187162	2.06e5	1.88e5	2.36e5	2.13e5	18080	inactive
13	CG14316	SID104194587	2.05e5	1.74e5	2.40e5	2.66e5	13820	inactive
14	ppk	SID104183387	1.48e5	1.38e5	1.40e5	1.35e5	11220	inactive
15	CG9021	SID104182920	1.60e5	2.05e5	1.81e5	2.01e5	14365	inactive
16	Hsp60D	SID104182335	1.21e5	1.38e5	1.37e5	1.56e5	10615	inactive
17	Es2	SID104198455	2.04e5	1.71e5	2.42e5	2.78e5	12885	inactive
18	dpr4	SID104194323	76185	85495	81980	57530	4150	inactive
19	dpr4	SID104194721	78470	82170	56075	53300	4500	inactive
20	Myd88	SID104186607	1.24e5	1.49e5	1.12e5	1.22e5	9000	inactive
21	beat-Va	SID104193984	1.11e5	1.31e5	1.02e5	1.12e5	7425	inactive
22	Sodq	SID104195716	1.77e5	2.13e5	2.34e5	2.20e5	13825	inactive
23	side-III	SID104191947	52985	69130	55955	55550	6255	inactive
24	side-III	SID104192055	22580	17555	11595	15695	5460	inactive
25	side-III	SID104192056	1.14e5	1.43e5	1.42e5	96265	8790	inactive
26	Su(H)	SID104183237	65830	77240	1.27e5	1.48e5	14930	active
27	CG6244	SID104190401	1.09e5	1.54e5	1.30e5	1.24e5	7640	inactive
28	scw	SID104181503	69710	58605	77685	80610	5010	inactive
29	scw	SID104201044	1.45e5	1.06e5	1.70e5	1.36e5	11670	inactive
30	CG17490	SID104183586	85975	55510	68140	66540	7790	inactive
31	CG17490	SID104183589	48610	48375	38345	44565	1828	inactive
32	CG14053	SID104197700	1.35e5	1.19e5	2.09e5	2.19e5	9530	inactive
33	Fs(2)Ket	SID104183120	1.29e5	1.31e5	1.57e5	1.69e5	9435	inactive
34	rudhira	SID104199613	11980	11310	11940	13155	5605	inactive
35	CG11211	SID104184643	1.65e5	1.41e5	1.52e5	1.51e5	9820	inactive
36	CG13360	SID104198328	1.85e5	2.11e5	2.57e5	2.52e5	15545	active
37	Spn42Db	SID104184801	2.90e5	2.35e5	2.56e5	2.59e5	22600	inactive
38	CG30338	SID104184958	37970	55675	59560	66015	2750	inactive
39	Gpb5	SID104201033	76695	92750	1.22e5	1.05e5	6490	inactive
40	CG14810	SID104197485	54150	63865	82940	92575	6625	inactive
41	CG14810	SID104197753	75280	87900	1.26e5	1.14e5	6755	inactive
42	CG33552	SID104181343	67870	47140	75505	61010	6990	inactive
43	CG12439	SID104181960	1.26e5	1.66e5	65105	93915	19550	inactive
44	CG8159	SID104196184	1.03e5	94800	72210	88955	6805	inactive
45	Tom70	SID104182782	1.30e5	1.53e5	1.62e5	1.76e5	11275	inactive
46	CG13121 (retired record)	SID104182009	1.08e5	1.60e5	68090	91390	16410	inactive
47	CG5611	SID104195635	1.58e5	1.72e5	2.45e5	2.04e5	14005	inactive
48	RpL18A	SID104187330	10970	7565	7570	8540	1510	inactive
49	CG7514	SID104188389	1.58e5	1.65e5	1.38e5	2.10e5	8330	inactive
50	RpS17	SID104191063	35685	44835	59335	45130	1185	active
